Source: PMC3556083

B1: RRAS2 (protein, UniProt F7ESH4 1-204)
chain: MAAAGWRDGSGQEKYRLVVVGGGGVGKSALTIQFIQSYFVTDYDPTIEDSYTKQCVIDDRAARLDILDTAGQEEFGAMREQYMRTGEGFLLVFSVTDRGSFEEIYKFQRQILRVKDRDEFPMILIGNKADLDHQRQVTQEEGQQLARQLKVTYMEASAKIRMNVDQAFHELVRVIRKFQEQECPPSPEPTRKEKDKKGCHCVIF
B2: YWHAQ (includes EG:22630) (protein, UniProt P68255 1-245)
chain: MEKTELIQKAKLAEQAERYDDMATCMKAVTEQGAELSNEERNLLSVAYKNVVGGRRSAWRVISSIEQKTDTSDKKLQLIKDYREKVESELRSICTTVLELLDKYLIANATNPESKVFYLKMKGDYFRYLAEVACGDDRKQTIENSQGAYQEAFDISKKEMQPTHPIRLGLALNFSVFYYEILNNPELACTLAKTAFDEAIAELDTLNEDSYKDSTLIMQLLRDNLTLWTSDSAGEECDAAEGAEN
B3: FAM129A (protein, UniProt Q9ESN0 1-937)
chain: MGGSASSQLDEGKCAYIRGKTEASIKNFSPYYSRQYSVAFCNHVRSEVEQQRDLTSQFLKTKPPLEPGTVLYEAELSQFAEDIRKWKDRYVVVKNDFAVESYENKEAYQRGAVPKSRILPAGGKVLTSEEEYSLLSDKHFPDPTASSEKNSQPFLVLPKAFPVYLWQPYLRHGYFCFHEAAEQQKFSALLNDCIRHLNHDYMKQTTFEAQAFLEAVQFFRQEKGHYGAWEVITGDEVQILSKLVMEELLPTLQTDLLPKLKGKKNDRKRAWFGLLEEAYNLVQHQVSEGLSALKEECRALTKDLEGTIRSDMDQIVNSKNFLTGKIRAMVAQPAENRCGESVQPFLASILEELMGPVSSGFSEVRALFEKEVDELSQSFHTTQDGAQLKECLDQLMKLPLDSVKMEPCYTKVTLLPERLLDLQSRFRFPHVDLVVQRTQNYMQELMENAVFTFEQLLSPYLQGEASRTAVAIEKVKLRVLKQYDYDSSTIRKKIFQEALIQITLPTVQKALASTCKPELQKYEQFIFADHTNMIHVENIYEEILYQILLDETLKVITEAAILKKHNLFEDNMALPSESVSSLTDLKTSMGSNQASPARGASAILPGAPGDEAPGSEVFQGPEEKQQQPGVPGSLAREESASISGSSPPSGEDGQVSVSGVDNSAGNPLSADNSAGPLSSHLSEAEAGEPPKDEETAHKRPESSAVPGSLRELKELLTVTVFVESAPEIGNDTLNGTPVPQEDKKEEEEEEESKIHPEASGPAAIQQDSCEESEVREREAHPMPLEAEAPGVNLGTLPEGRGPTSQSTGEGLTENTSCLGPIEEPSEAQGPTEEVLLATVSTQDSTEAGGEAVHSVTVTPQEDATLSSNPICPVENNEGPQVSEDQEVLGGNDSPALAMDTEQINDAHVYECHWEVEDAPSADILDVHDCDVGSPGEW
B4: NOS3 (protein, UniProt Q62600 1-1202)
chain: MGNLKSVGQEPGPPCGLGLGLGLGLCGKQGPASPAPEPSQAPVPPSPTRPAPDHSPPLTRPPDGPKFPRVKNWEVGSITYDTLSAQAQQDGPCTPRRCLGSLVFPRKLQSRPTQGPSPTEQLLGQARDFINQYYNSIKRSGSQAHEQRLQEVEAEVVATGTYQLRESELVFGAKQAWRNAPRCVGRIQWGKLQVFDARDCRTAQEMFTYICNHIKYATNRGNLRSAITVFPQRYAGRGDFRIWNSQLVRYAGYRQQDGSVRGDPANVEITELCIQHGWTPGNGRFDVLPLLLQAPDEPPELFTLPPELVLEVPLEHPTLEWFAALGLRWYALPAVSNMLLEIGGLEFPAAPFSGWYMSSEIGMRDLCDPHRYNILEDVAVCMDLDTRTTSSLWKDKAAVEINVAVLYSYQLAKVTIVDHHAATASFMKHLENEQKARGGCPADWAWIVPPISGSLTPVFHQEMVNYFLSPAFRYQPDPWKGSAAKGTGITRKKTFKEVANAVKISASLMGTVMAKRVKATILYGSETGRAQSYAQQLGRLFRKAFDPRVLCMDEYDVVSLEHEALVLVVTSTFGNGDPPENGESFAAALMEMSGPYNSSPRPEQHKSYKIRFNSVSCSDPLVSSWRRKRKESSNTDSAGALGTLRFCVFGLGSRAYPHFCAFARAVDTRLEELGGERLLQLGQGDELCGQEEAFRGWAQAAFQAACETFCVGEDAKAAARDIFSPKRSWKRQRYRLSTQAESLQLLPRLTHVHRRKMFQATILSVENLQSSKSTRATILVRLDTGSQEGLQYQPGDHIGVCPPNRPGLVEALLSRVEDPPPSTEPVAVEQLEKGSPGGPPPGWVRDPRLPPCTLRQALTYFLDITSPPSPRLLRLLSTLAEESSEQQELEALSQDPRRYEEWKWFRCPTLLEVLEQFPSVALPAPLILTQLPLLQPRYYSVSSAPSAHPGEIHLTVAVLAYRTQDGLGPLHYGVCSTWMSQLKAGDPVPCFIRGAPSFRLPPDPNLPCILVGPGTGIAPFRGFWQDRLHDIEIKGLQPAPMTLVFGCRCSQLDHLYRDEVLDAQQRGVFGQVLTAFSRDPGSPKTYVQDLLRTELAAEVHRVLCLEQGHMFVCGDVTMATSVLQTVQRILATEGSMELDEAGDVIGVLRDQQRYHEDIFGLTLRTQEVTSRIRTQSFSLQERQLRGAVPWSFDPPTQETPGS
B5: CAND1 (protein, UniProt P97536 1-1230)
chain: MASASYHISNLLEKMTSSDKDFRFMATNDLMTELQKDSIKLDDDSERKVVKMILKLLEDKNGEVQNLAVKCLGPLVSKVKEYQVETIVDTLCTNMLSDKEQLRDISSIGLKTVIGELPPASSGSALAANVCKKITGRLTSAIAKQEDVSVQLEALDIMADMLSRQGGLLVNFHPSILTCLLPQLTSPRLAVRKRTIIALGHLVMSCGNIVFVDLIEHLLSELSKNDSMSTTRTYIQCIAAISRQAGHRIGEYLEKIIPLVVKFCNVDDDELREYCIQAFESFVRRCPKEVYPHVSTIINICLKYLTYDPNYNYDDEDEDENAMDADGGDDDDQGSDDEYSDDDDMSWKVRRAAAKCLDAVVSTRHEMLPEFYKTVSPALISRFKEREENVKADVFHAYLSLLKQTRPVQSWLCDPDAMEQGETPLTMLQSQVPNIVKALHKQMKEKSVKTRQCCFNMLTELVNVLPGALTQHIPVLVPGIIFSLNDKSSSSNLKIDALSCLYVILCNHSPQVFHPHVQALVPPVVACVGDPFYKITSEALLVTQQLVKVIRPLDQPSSFDATPYIKDLFTCTIKRLKAADIDQEVKERAISCMGQIICNLGDNLGPDLSNTLQIFLERLKNEITRLTTVKALTLIAGSPLKIDLRPVLGEGVPILASFLRKNQRALKLGTLSALDILIKNYSDSLTAAMIDAVLDELPPLISESDMHVSQMAISFLTTLAKVYPSSLSKISGSILNELIGLVRSPLLQGGALSAMLDFFQALVVTGTNNLGYMDLLRMLTGPVYSQSTALTHKQSYYSIAKCVAALTRACPKEGPAVVGQFIQDVKNSRSTDSIRLLALLSLGEVGHHIDLSGQLELKSVILEAFSSPSEEVKSAASYALGSISVGNLPEYLPFVLQEITSQPKRQYLLLHSLKEIISSASVVGLKPYVENIWALLLKHCECAEEGTRNVVAECLGKLTLIDPETLLPRLKGYLISGSSYARSSVVTAVKFTISDHPQPIDPLLKNCIGDFLKTLEDPDLNVRRVALVTFNSAAHNKPSLIRDLLDSVLPHLYNETKVRKELIREVEMGPFKHTVDDGLDIRKAAFECMYTLLDSCLDRLDIFEFLNHVEDGLKDHYDIKMLTFLMLVRLSTLCPSAVLQRLDRLVEPLRATCTTKVKANSVKQEFEKQDELKRSAMRAVAALLTIPEAEKSPLMSEFQSQISSNPELAAIFESIQKDSSSTNLESMDTS
B6: PSMC2 (protein, UniProt Q63347 1-433)
chain: MPDYLGADQRKTKEDEKDDKPIRALDEGDIALLKTYGQSTYSRQIKQVEDDIQQLLKKINELTGIKESDTGLAPPALWDLAADKQTLQSEQPLQVARCTKIINADSEDPKYIINVKQFAKFVVDLSDQVAPTDIEEGMRVGVDRNKYQIHIPLPPKIDPTVTMMQVEEKPDVTYSDVGGCKEQIEKLREVVETPLLHPERFVNLGIEPPKGVLLFGPPGTGKTLCARAVANRTDACFIPVIGSELVQKYVGEGARMVRELFEMARTKKACLIFFDEIDAIGGARFDDGAGGDNEVQRTMLELINQLDGFDPRGNIKVLMATNRPDTLDPALMRPGRLDRKIEFSLPDLEGRTHIFKIHARSMSVERDIRFELLARLCPNSTGAEIRSVCTEAGMFAIRARRKIATEKDFLEAVNKVIKSYAKFSATPRYMTYN
B7: TGM2 (protein, UniProt Q9WVJ6 1-686)
chain: MAEELNLERCDLEIQANGRDHHTADLCQQKLVLRRGQRFRLTLYFEGRGYEASVDRLTFGAVTGPDPSEEAGTKARFSLSDDVEEGSWSASVLDQQDNVLSLQLCTPANAPVGQYRLSLETSTGYQGSSFMLGHFILLFNAWCPADDVYLDSEAERREYVLTQQGFIYQGSVKFIKSVPWNFGQFEDGILDACLMLLDVNPKFLKDRSRDCSRRSSPIYVGRVVSGMVNCNDDQGVLLGRWDNNYGDGISPMAWIGSVDILRRWKEHGCQQVKYGQCWVFAAVACTVLRCLGIPTRVVTNYNSAHDQNSNLLIEYFRNEYGELESNKSEMIWNFHCWVESWMTRPDLQPGYEGWQAIDPTPQEKSEGTYCCGPVSVRAIKEGDLSTKYDASFVFAEVNADVVDWIRQSDGSVLKSINNSLVVGQKISTKSVGRDDREDITYTYKYPEGSPEEREVFTRANHLNKLAEKEETGVAMRIRVGDGMSLGNDFDVFAHIGNDTSESRECRLLLCARTVSYNGVLGPECGTEDINLTLDPYSENSIPLRILYEKYSGCLTESNLIKVRGLLVEPAANSYLLAERDLYLENPEIKIRILGEPKQNRKLVAEVSLKNPLSDSLYDCVFTVEGAGLTKEQKSVEVSDPVPAGDAVKVRVDLFPTDIGLHKLVVNFQCDKLKSVKGYRNIIIGPA
B8: HP (protein, UniProt P06866 19-347)
chain: VELGNDATDIEDDSCPKPPEIANGYVEHLVRYRCRQFYKLQTEGDGIYTLNSEKQWVNPAAGDKLPKCEAVCGKPKHPVDQVQRIIGGSMDAKGSFPWQAKMISRHGLTTGATLISDQWLLTTAQNLFLNHSENATAKDIAPTLTLYVGKNQLVEIEKVVLHPERSVVDIGLIKLKQKVLVTEKVMPICLPSKDYVAPGRMGYVSGWGRNVNFRFTERLKYVMLPVADQEKCELHYEKSTVPEKKGAVSPVGVQPILNKHTFCAGLTKYEEDTCYGDAGSAFAVHDTEEDTWYAAGILSFDKSCAVAEYGVYVRATDLKDWVQETMAKN
B9: RRAD (protein, UniProt P55043 1-306)
chain: MTLNGGSGAGGSRSAGRERDRRRGSTPWGPAPPLHRRSMPVDERDLQAALTPGSLAATAAGTRTQGQRLDWPEGSSDSLSSGDSGSEDGVYKVHAAGAPGVGKSALARIFGGVEDGPEAEAAGHTYDRSITVDGEEASLMVYDIWEQDGGCWLPGHCMAMGDAYVIVYSITDKGSFEKASELRVQLRARRQTDVPIILVGNKSDLVRSREVSVDEGRACAEVFDCKFIETSAALHHNVQALFEGVVRQIRLRRDSKEDNARRQAGTRRRESLGKKAKLFLGRIVARNSRKMAFLAKSKSCHDLSVL

The binders below were run against β2-adrenergic receptor (UniProt P07550) (assay: affinity purification with mass spectrometry; purified Flag-β2AR in rHDL immobilised on M1 anti-Flag resin, occupied by 50 µM BI-167107 (full agonist) or 50 µM carazolol (inverse agonist); adult rat heart cytosol (10 mg/ml, 4 mM CaCl2) overnight at 4°C; eluted with FLAG peptide and EDTA; gel slices, LC-MS; proteins of the M1 resin, empty rHDL and Ni-NTA controls subtracted; hits of either or both samples; only the target purified).

binding, binds:
B1
B2
B3
B4
B5
B6
B7
B8
B9

No constants are given. Whether binding was seen depends on the method and setting. Binding seen in cells or lysates may run through a third protein. These calls come from enrichment with a bait or labelling near it, and not all partners need be listed.
